From doi:10.1101/2025.05.08.652646
Results are given in words; binding and its absence hold for the method and conditions named. A result given as binding can be weak or reduced; the word gives no strength.

Biological target: N-terminal domain of LypB (Caulobacter crescentus)
Test: two-hybrid

## LypA CARD-like domain (aa 1-84) (from UniProt A0A0H3IFL3) (domain or fragment)
  binding: binds
